Values from PubChem BioAssay AID1259323 (Peter MacCallum Cancer Centre, 2017).

Assay: 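Kinase knock-downs that weaken TRPV4 calcium entry after PAR2 activation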 (primary screen)
Cell system: human HEK293 cells stably carrying inducible TRPV4
Reagents: siRNA pool against human genes
Treatment: PAR2 activation; agonist identity and dose not given
Measurement: 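Signal of a calcium dye in live cells following PAR2 activation, plateau and early peak normalised to mock transfection on each plate, mean of duplicate plates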
Reading the numbers: TRPV4 plateau calcium, % of mock: higher = stronger sustained TRPV4 calcium entry than mock; PAR2 peak calcium, % of mock: higher = stronger early PAR2 calcium response than mock
Hit rule: 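Active if plateau calcium is under 90% of mock and early peak calcium stays over 79% of mock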
In all, the deposit lists 715 reagents; below is an unselected part. 91 of all reagents (13%) were called active. 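Active pools lower the sustained TRPV4 phase but spare the early PAR2 peak; PAR2 agonist and dose are not stated; pools repeat across wells.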 Not given: the amount of reagent, the time to read-out.

Target gene,"TRPV4 plateau calcium, % of mock","PAR2 peak calcium, % of mock",activity call
ACVRL1 (GeneID 94),85,96,active
PIM3 (GeneID 415116),94.9,96.6,inactive
OBSCN (GeneID 84033),107,105,inactive
MAP3K5 (GeneID 4217),110,108,inactive
CLK1 (GeneID 1195),113,104,inactive
NME4 (GeneID 4833),102,103,inactive
CDKN2C (GeneID 1031),112,105,inactive
ROS1 (GeneID 6098),104,97.7,inactive
LTK (GeneID 4058),108,102,inactive
AK2 (GeneID 204),98,96.4,inactive
PKDCC (GeneID 91461),111,105,inactive
BUB1B (GeneID 701),98.3,103,inactive
NIM1K (GeneID 167359),100,97.2,inactive
NRBP1 (GeneID 29959),88.2,95,active
CSNK2A2 (GeneID 1459),90.4,91.6,inactive
RPS6KA1 (GeneID 6195),95.5,95.6,inactive
TLK2 (GeneID 11011),105,102,inactive
TNK1 (GeneID 8711),99.8,96.4,inactive
CDK16 (GeneID 5127),109,103,inactive
DAPK1 (GeneID 1612),93.8,92.3,inactive
MOS (GeneID 4342),95.7,96.9,inactive
KCNH8 (GeneID 131096),106,103,inactive
SNRK (GeneID 54861),95.7,98.3,inactive
PFKFB3 (GeneID 5209),111,106,inactive
PKN1 (GeneID 5585),93.3,100,inactive
DSTYK (GeneID 25778),94.1,94.5,inactive
PIP5K1C (GeneID 23396),98.9,100,inactive
MAPK7 (GeneID 5598),91.3,94.3,inactive
OXSR1 (GeneID 9943),109,103,inactive
PRKAG1 (GeneID 5571),91.5,89.3,inactive
CALM3 (GeneID 808),91.8,103,inactive
PTK2B (GeneID 2185),80.9,72.2,inactive
CSNK1G1 (GeneID 53944),111,105,inactive
RPS6KC1 (GeneID 26750),112,103,inactive

In a second layout: entries from further up.
{"Target gene": "MAPK7 (GeneID 5598)", "TRPV4 plateau calcium, % of mock": 91.3, "PAR2 peak calcium, % of mock": 94.3, "activity call": "inactive"}
{"Target gene": "OXSR1 (GeneID 9943)", "TRPV4 plateau calcium, % of mock": 109, "PAR2 peak calcium, % of mock": 103, "activity call": "inactive"}
{"Target gene": "PRKAG1 (GeneID 5571)", "TRPV4 plateau calcium, % of mock": 91.5, "PAR2 peak calcium, % of mock": 89.3, "activity call": "inactive"}
